# Data taken from PMC4444337 (PLoS ONE, 2015).
# Key:
# [1] = highest dose group, at necropsy
# Method: (§1) In Study 1 all animals were followed until day 13 post-inoculation, when the necropsy took place.
# (§2) In Study 2 all animals were followed until day 15 post-inoculation, when the necropsy took place.
# (§3) Bronchoalveolar lavage fluid (BALF), nasal and throat swabs and blood samples were collected every 2 days from day 1 postinfection up to day 11 (study 1) and day 13 (study 2). For BALF collection, monkeys were sedated with […] (0.02–0.05 mg/kg) administered intramuscularly to allow passage of sterile laryngoscope and endotracheal tube. BAL was performed by laryngoscopy by inserting a shortened Kendall Sovereign feeding tube and urethral catheter through the endotracheal tube and approximately 10 mL of phosphate buffer saline (10 mL, pH 7.4) was instilled and gently suctioned back into the syringe promptly to recover approximately 5–7 mL of BAL in the syringe. Later, the adjustment of the dilution was done based on urea and protein concentration. White blood cell (WBC) count from BALF was analyzed using automated blood analysis instrumentation (Antech Diagnostics, Lake Success, NY, USA).
# RSV subgroup A strain A2 = assay: RSV viral load (qRT-PCR, RSV-A F gene) in BALF/throat after RSV A2 challenge; type: in vivo, African green monkeys
# Method: as §1, §2, §3
# All animals were challenged with 1.5mL of 1 × 10^4 pfu/mL RSV subgroup A—strain A2 virus intranasally (i.n.) and intratracheally (i.t.) on day 0. […] The virus was thawed at room temperature and immediately put on ice.
# For each inoculation, 1.5 mL were aspirated with a 3 mL syringe. After being anesthetized with 10 mg/mL ketamine, the animals were placed in dorsal recumbency. 0.25 mL of the virus was instilled drop-by-drop into each nostril and allowed to absorb for 20 sec. […]
# RSV was quantified using one-Step RT-PCR Master Mix reagents (Applied Bio systems, USA). […]
# The IEC-B assay was run as control. The viral load (VL) was expressed as RSV A-F copy numbers and transformed in Δ log10 values. […] The antiviral effect was calculated as differences between peak VL and area under the curve (AUC) VL based on Δ log10 RSV from different groups.
# IFNγ = IFNγ in BALF (Luminex) after RSV challenge; type: in vivo, African green monkeys
# Method: (§4) The following monkey-specific cytokines were determined in BALF using a Luminex bead analysis according to the manufacturer's protocol: Interleukins (IL)-1b, IL-2, IL-4, IL-5, IL-6, IL-8, IL-10, Interferons (IFN)γ, IFNα, Tumor necrosis factor (TNF)α, Regulated on Activation, Normal T Cell Expressed and Secreted (RANTES), and Macrophage inflammatory protein (MIP)-1α. The non-human primate Luminex beads for IFNγ, IFNα, and IL-10 were provided by Texas Biomedical Research Institute (Texas, USA). The beads for the remaining cytokines were obtained from Millipore (Billerica, MA, USA). The samples for cytokine determination were run in duplicates. Human cytokine standards were used for standard curves and for determination of the lower limit of detection for individual cytokines. The results were read using a Luminex 100 System (Texas, USA).
# IL6 = IL6 in BALF (Luminex) after RSV challenge; type: in vivo, African green monkeys
# Method: as §4
# MIP1α = MIP1α in BALF (Luminex) after RSV challenge; type: in vivo, African green monkeys
# Method: as §4
# RSV = conditions: plasma protein binding correction factor: 100
# [2] = cited from earlier work
# [3] = cited from earlier work; remark: listed apart in the source
compound,measurement,setting,value
Cc1ccc(CCCO)c(NCc2ccc3nc(NCCCN4CCOCC4)n(Cc4nc(C)ccc4O)c3c2)c1 [TMC353121],Plasma concentration after cessation of the infusion,[1],still detectable at the time of necropsy
same,Reduction of VL AUC,"RSV subgroup A strain A2; Study 1, Px50, BALF",20%
same,Reduction of VL AUC,"RSV subgroup A strain A2; Study 1, Tx50, BALF",5%
same,Reduction in peak viral load in BALF compared to the remaining controls,"RSV subgroup A strain A2; one control (V1) AGM accidentally infused with the drug for 24 hours, two days after infection",1.5 log10
same,IFNγ AUC Median in BALF,"IFNγ; Study 1, Px50, vehicle Vh1 5936",5678
same,IFNγ AUC Median in BALF,"IFNγ; Study 1, Tx50, vehicle Vh1 5936",2718
same,IFNγ AUC Median in BALF,"IFNγ; Study 2, Px5, vehicle Vh2 8120",1498
same,IFNγ AUC Median in BALF,"IFNγ; Study 2, Px500, vehicle Vh2 8120",46
same,IL6 AUC Median in BALF,"IL6; Study 1, Px50, vehicle Vh1 540",527
same,IL6 AUC Median in BALF,"IL6; Study 1, Tx50, vehicle Vh1 540",391
same,IL6 AUC Median in BALF,"IL6; Study 2, Px5, vehicle Vh2 1174",537.5
same,IL6 AUC Median in BALF,"IL6; Study 2, Px500, vehicle Vh2 1174",0
same,MIP1α AUC Median in BALF,"MIP1α; Study 1, Px50, vehicle Vh1 394",201
same,MIP1α AUC Median in BALF,"MIP1α; Study 1, Tx50, vehicle Vh1 394",106
same,MIP1α AUC Median in BALF,"MIP1α; Study 2, Px5, vehicle Vh2 718.5",142
same,MIP1α AUC Median in BALF,"MIP1α; Study 2, Px500, vehicle Vh2 718.5",0
same,EC50c (EC50 corrected for plasma protein binding),RSV,The concentration of drug in different compartments was expressed as fold EC50c. EC50c = 7 ng/mL x plasma protein binding correction factor: 100. Urea dilution factor of 9.7 was applied for drug concentration in BALF. LOD = limit of detection. LODTMC353121 = 0.19 ng/mL.
same,Cytotoxicity,[2],low cytotoxicity
same,lung t1/2,[3],25 h
